Results deposited as PubChem BioAssay AID1259254 (NCATS, 2017).
Aim: 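Finding genes that stop cells copying their DNA twice in one cycle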 (primary screen). System: human HCT116 colorectal cancer cells. Reagents: single siRNA against human genes. Time to read-out: 3 days. Measurement: 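Nuclei stained with Hoechst and imaged; cell-cycle phase assigned by DNA content; G2 share scaled per plate, non-targeting siRNA 0%, GMNN siRNA 100%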. Direction: G2 robust z-score and G2 cells, % of GMNN control: higher = more G2 cells, more excess DNA replication. Hit rule: 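Active siRNAs have a G2 robust z of 5 or more median absolute deviations over the median, which in these data means about 38% or higher of GMNN control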.
This is one part, drawn at random, of about 59,000 deposited reagents. Of all reagents, about 1,550 (2.6%) were called active. 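G2 share is only a proxy for re-replication; each gene was hit by three separate siRNAs, and active genes were retested.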 The numbers tell different reagents against one gene apart. Further read-outs or replicates are left out here. Not given: the amount of reagent.

FBLN1 (GeneID 2192) #1 gave G2 robust z-score 0.28; G2 cells, % of GMNN control 4.94; inactive.
Depletion of FBLN1 (GeneID 2192) #2 resulted in: G2 robust z-score -0.331; G2 cells, % of GMNN control 0.638; inactive.
For FBLN1 (GeneID 2192) #3 the deposit lists G2 robust z-score 5.82; G2 cells, % of GMNN control 43.9; active.
Against DUSP3 (GeneID 1845) #1, the entry reads G2 robust z-score 2.08; G2 cells, % of GMNN control 17.6; inactive.
DUSP3 (GeneID 1845) #2 showed G2 robust z-score -0.29; G2 cells, % of GMNN control 0.924; inactive.
Against DUSP3 (GeneID 1845) #3, the entry reads G2 robust z-score -0.915; G2 cells, % of GMNN control -3.47; inactive.

2 entries already listed, sorted by “G2 cells, % of GMNN control”, highest first.
FBLN1 (GeneID 2192) #3: G2 robust z-score = 5.82; G2 cells, % of GMNN control = 43.9; Outcome = active
DUSP3 (GeneID 1845) #1: G2 robust z-score = 2.08; G2 cells, % of GMNN control = 17.6; Outcome = inactive

The results go on.
Knock-down of NNT (GeneID 23530) #1 resulted in: G2 robust z-score -0.342; G2 cells, % of GMNN control 0.563; inactive.
NNT (GeneID 23530) #2 gave G2 robust z-score 1.64; G2 cells, % of GMNN control 14.5; inactive.
NNT (GeneID 23530) #3 scored G2 robust z-score 0.935; G2 cells, % of GMNN control 9.54; inactive.
Silencing of DCAF4 (GeneID 26094) #1 resulted in: G2 robust z-score -0.183; G2 cells, % of GMNN control 1.68; inactive.
Depletion of DCAF4 (GeneID 26094) #2 resulted in: G2 robust z-score 1.13; G2 cells, % of GMNN control 10.9; inactive.
With knock-down of DCAF4 (GeneID 26094) #3, the record shows G2 robust z-score -0.933; G2 cells, % of GMNN control -3.59; inactive.
